The values that follow come from the supplement of paper PMC4962491.

± gives the standard deviation of the averaged measurements. The list shows a part of the results, in another mix than the full data. Most values lie within the scatter of the assay; repeated measurements hardly agree.

This assay concerns FaDu. In words: mitochondrial oxygen consumption rate normalised to cell number, Z score over the library; higher = higher oxygen consumption (negative = OCR reduction). As to conditions: treatment time 24 h, assay medium: 5 mM galactose, 5 mM pyruvate, 4 mM glutamine. The procedure:
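Primary screen: FaDu cells were incubated 24 h with Pharmakon 1600 / TDI oncology set compounds at 2 or 10 uM. Mitochondrial-specific OCR (basal minus 2 uM antimycin A) was measured on a Seahorse XF96 in assay medium with 5 mM galactose, 5 mM pyruvate and 4 mM glutamine, then corrected for Hoechst cell number and expressed as a Z score […]. Compounds that cut cell number by >66% were excluded. Two repeats.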

For `NC(=O)c1cnccn1`, the “mitochondrial oxygen consumption rate normalised” value (2 µM) was -0.254 ± 0.12.

With `CC(C)OC(=O)C(C)(C)Oc1ccc(C(=O)c2ccc(Cl)cc2)cc1`, where the note is “2 µM”, the “mitochondrial oxygen consumption rate normalised” value was -0.083 ± 0.062.

Regarding `CCOC(=S)SSC(=S)OCC`, the “mitochondrial oxygen consumption rate normalised” value (2 µM) was 0.744 ± 0.72.

On to `Cc1cc2c(s1)Nc1ccccc1N=C2N1CCN(C)CC1`, for which the “mitochondrial oxygen consumption rate normalised” value (2 µM) was -0.748 ± 0.053.

For `NC(=O)CC[C@H](N)C(=O)O`, for the setting “2 µM”, the “mitochondrial oxygen consumption rate normalised” value was 0.104 ± 0.48.

As for `O=C1c2ccccc2C(=O)C1c1ccc(Br)cc1`, for the setting “2 µM”, the “mitochondrial oxygen consumption rate normalised” value was 0.466 ± 0.045.

As for `CC=CC1=C(C(=O)O)N2C(=O)[C@@H](NC(=O)[C@H](N)c3ccc(O)cc3)[C@H]2SC1`, the “mitochondrial oxygen consumption rate normalised” value (2 µM) came out at 0.749 ± 0.37.

On to `CC(=O)N(c1onc(C)c1C)S(=O)(=O)c1ccc(N)cc1`, for which the “mitochondrial oxygen consumption rate normalised” value (2 µM) was -0.284 ± 0.5.

As to `Cc1cc(O)cc(C)c1Cl`, the “mitochondrial oxygen consumption rate normalised” value (2 µM) was determined as 0.42 ± 0.029.

Regarding `Cc1cn(-c2cc(NC(=O)c3ccc(C)c(Nc4nccc(-c5cccnc5)n4)c3)cc(C(F)(F)F)c2)cn1` [Nilotinib], the “mitochondrial oxygen consumption rate normalised” value (2 µM) was 0.077 ± 0.28.

Consider `Oc1cccc(O)c1`, for which the “mitochondrial oxygen consumption rate normalised” value (2 µM) turned out to be 0.629 ± 0.54.

Regarding `CN1CCCN=C1/C=C/c1cccc(O)c1`, the “mitochondrial oxygen consumption rate normalised” value stood at 0.202 ± 1 (2 µM) and 0.441 ± 0.03 (10 µM).

Consider `N#CCC(=O)NN`, for which, for the setting “2 µM”, the “mitochondrial oxygen consumption rate normalised” value came out at 1.21 ± 0.42.

For the compound `CC(N)CCCC(C)(C)O` (stereo not given), the “mitochondrial oxygen consumption rate normalised” value (2 µM) was -0.9811 ± 0.0052.

`O=C(O)c1cc(/N=N/c2ccc(S(=O)(=O)Nc3ccccn3)cc2)ccc1O`: the “mitochondrial oxygen consumption rate normalised” value (2 µM) was -0.925 ± 0.63.

Consider `CN/C(=N\CCSCc1nc[nH]c1C)NC#N`, for which the “mitochondrial oxygen consumption rate normalised” value (2 µM) is 0.0519 ± 0.65.

`C/C(=C\C(=O)OCCCCCCCCC(=O)O)C[C@@H]1OC[C@H](C[C@@H]2O[C@H]2[C@@H](C)[C@H](C)O)[C@@H](O)[C@H]1O`: the “mitochondrial oxygen consumption rate normalised” value (2 µM) turned out to be 0.136 ± 0.57.

`CC1/C=C/C=C/C=C/C=C/C=C/C=C/C=C/C(OC2O[C@H](C)[C@@H](O)[C@H](N)[C@@H]2O)CC(O)C(C(=O)O)C(O)CC(=O)CC(O)CC(O)CC(O)CC(=O)CCCC(=O)CC(=O)OC1C(C)CC(C)C(O)CC(=O)c1ccc(N)cc1` (stereo not given in full): under “2 µM”, the “mitochondrial oxygen consumption rate normalised” value was -0.749 ± 0.52.

Regarding `O=C(O)c1ccccc1O`, the “mitochondrial oxygen consumption rate normalised” value (2 µM) was 1.52 ± 1.4.

As to `O=c1oc2cc(O)ccc2s1`, the “mitochondrial oxygen consumption rate normalised” value (2 µM) was -0.555 ± 0.6.

As to `CCOc1ccc2nc(S(N)(=O)=O)sc2c1`, the “mitochondrial oxygen consumption rate normalised” value (2 µM) worked out at 0.564 ± 0.15.

Consider `C[C@@H]1C[C@H]2[C@@H]3CCC4=CC(=O)C=C[C@]4(C)[C@@]3(Cl)[C@@H](O)C[C@]2(C)[C@@]1(OC(=O)c1ccco1)C(=O)CCl`, for which, for the setting “2 µM”, the “mitochondrial oxygen consumption rate normalised” value was -0.0272 ± 0.76.

As for `C[N+](C)(C)CC(=O)O`, under “2 µM”, the “mitochondrial oxygen consumption rate normalised” value is -0.591 ± 0.54.

Consider `O=C(O)c1ccccc1C(=O)Nc1ccc(S(=O)(=O)Nc2nccs2)cc1`, for which the “mitochondrial oxygen consumption rate normalised” value (2 µM) was 1.21 ± 0.29.

For `OCCN(CCO)c1nc(N2CCCCC2)c2nc(N(CCO)CCO)nc(N3CCCCC3)c2n1`, the “mitochondrial oxygen consumption rate normalised” value (2 µM) is -0.668 ± 0.35.

On to `CN1CCN(C(c2ccccc2)c2ccccc2)CC1`, for which the “mitochondrial oxygen consumption rate normalised” value (2 µM) came out at 0.55 ± 0.032.

Consider `C[C@]12CC[C@@H]3c4ccc(OC(=O)c5ccccc5)cc4CC[C@H]3[C@@H]1CC[C@@H]2O`, for which the “mitochondrial oxygen consumption rate normalised” value (2 µM) amounted to 0.561 ± 0.12.

As for `C[C@@H]1C[C@H]2[C@@H]3CCC4=CC(=O)C=C[C@]4(C)[C@@]3(F)[C@@H](O)C[C@]2(C)[C@@]1(O)C(=O)COP(=O)(O)O`, under “2 µM”, the “mitochondrial oxygen consumption rate normalised” value is -0.545 ± 0.62.

Take `CCN(CC)CCNC(C(=O)OCCC(C)C)c1ccccc1` (stereo not given): the “mitochondrial oxygen consumption rate normalised” value (2 µM) was -0.573 ± 0.39.
